# In paper doi:10.1101/2022.06.27.497739:
# The chains behind the UniProt entries cited, without tags or fusion partners. Where a name states a change or a piece, a line headed by the entry shows the natural chain unless it says otherwise.
# UniProt Q01939, whole entry, looked up, stated change not applied: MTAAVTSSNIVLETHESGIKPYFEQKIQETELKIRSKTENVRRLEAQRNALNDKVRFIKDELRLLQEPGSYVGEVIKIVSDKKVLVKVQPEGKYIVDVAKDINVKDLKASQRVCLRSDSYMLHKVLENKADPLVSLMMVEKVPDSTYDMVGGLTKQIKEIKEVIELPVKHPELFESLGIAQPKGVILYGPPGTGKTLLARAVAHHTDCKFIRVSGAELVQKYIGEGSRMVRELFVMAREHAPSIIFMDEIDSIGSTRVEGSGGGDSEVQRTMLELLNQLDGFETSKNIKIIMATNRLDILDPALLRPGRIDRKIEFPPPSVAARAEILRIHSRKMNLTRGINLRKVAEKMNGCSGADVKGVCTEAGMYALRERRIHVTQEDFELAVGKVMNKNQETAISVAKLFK
# Changes are numbered by the printed parent chain. Names may count otherwise. Results are given in words; binding and its absence hold for the method and conditions named. For part of these data: In cells and extracts the contact can be indirect. Some entries that bind do so weakly or less than the wild type. For part of these data: Sequences can lack the tags named with a protein.
# T1: Rpn6 with MBP tag, co-expressed with the other lid subunits (budding yeast (S. cerevisiae)), Q12377
# T1 chain: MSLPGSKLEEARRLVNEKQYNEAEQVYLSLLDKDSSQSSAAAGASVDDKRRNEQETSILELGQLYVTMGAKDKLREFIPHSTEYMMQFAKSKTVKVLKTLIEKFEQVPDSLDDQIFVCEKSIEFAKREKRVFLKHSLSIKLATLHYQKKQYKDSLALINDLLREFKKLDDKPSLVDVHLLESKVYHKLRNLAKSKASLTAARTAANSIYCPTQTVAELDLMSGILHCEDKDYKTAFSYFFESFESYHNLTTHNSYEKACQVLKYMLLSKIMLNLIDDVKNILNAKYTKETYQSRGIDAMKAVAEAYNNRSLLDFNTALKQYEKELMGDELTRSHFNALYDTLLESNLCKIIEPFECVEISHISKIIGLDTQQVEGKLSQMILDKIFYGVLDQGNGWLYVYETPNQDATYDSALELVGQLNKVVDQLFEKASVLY
# T2: Rpn6 with MBP tag, co-expressed with the other lid subunits (budding yeast (S. cerevisiae)) (UniProt Q12377)
# T2 sequence: T1 chain
# B1: Rpn7 W204C (Rpn7-Rpt6 reporter pair) (protein, UniProt Q06103 20-424)
# chain: RVPNYEVSEKAFLLTQSKVSIEQRKEAAEFVLAKIKEEEMAPYYKYLCEEYLVNNGQSDLEHDEKSDSLNEWIKFDQELYNELCKKNESKIKELNEKIQKLEEDDEGELEQAQAWINLGEYYAQIGDKDNAEKTLGKSLSKAISTGAKIDVMLTIARLGFFYNDQLYVKEKLEAVNSMIEKGGDCERRNRYKTYYGIHCLAVRNFKEAAKLLVDSLATFTSIELTSYESIATYASVTGLFTLERTDLKSKVIDSPELLSLISTTAALQSISSLTISLYASDYASYFPYLLETYANVLIPCKYLNRHADFFVREMRRKVYAQLLESYKTLSLKSMASAFGVSVAFLDNDLGKFIPNKQLNCVIDRVNGIVETNRPDNKNAQYHLLVKQGDGLLTKLQKYGAAVRLT
# B2: Sem1 co-expressed with the other lid subunits (WT lid), O94742 1-89 (protein)
# chain: MSTDVAAAQAQSKIDLTKKKNEEINKKSLEEDDEFEDFPIDTWANGETIKSNAVTQTNIWEENWDDVEVDDDFTNELKAELDRYKRENQ
# B3: Rpn11, co-expressed lid subunit, P43588 1-306 (enzyme)
# chain: MERLQRLMMNSKVGSADTGRDDTKETVYISSIALLKMLKHGRAGVPMEVMGLMLGEFVDDYTVNVVDVFAMPQSGTGVSVEAVDDVFQAKMMDMLKQTGRDQMVVGWYHSHPGFGCWLSSVDVNTQKSFEQLNSRAVAVVVDPIQSVKGKVVIDAFRLIDTGALINNLEPRQTTSNTGLLNKANIQALIHGLNRHYYSLNIDYHKTAKETKMLMNLHKEQWQSGLKMYDYEEKEESNLAATKSMVKIAEQYSKRIEEEKELTEEELKTRYVGRQDPKKHLSETADETLENNIVSVLTAGVNSVAIK
# B4: Rpn8, co-expressed lid subunit (protein, UniProt Q08723 1-338)
# chain: MSLQHEKVTIAPLVLLSALDHYERTQTKENKRCVGVILGDANSSTIRVTNSFALPFEEDEKNSDVWFLDHNYIENMNEMCKKINAKEKLIGWYHSGPKLRASDLKINELFKKYTQNNPLLLIVDVKQQGVGLPTDAYVAIEQVKDDGTSTEKTFLHLPCTIEAEEAEEIGVEHLLRDVRDQAAGGLSIRLTNQLKSLKGLQSKLKDVVEYLDKVINKELPINHTILGKLQDVFNLLPNLGTPDDDEIDVENHDRINISNNLQKALTVKTNDELMVIYISNLVRSIIAFDDLIENKIQNKKIQEQRVKDKQSKVSDDSESESGDKEATAPLIQRKNKKN
# B5: Rpn7 W204A, E205R, T237A, co-expressed lid subunit (protein, UniProt Q06103 20-424)
# chain: B1 chain with C185A, E186R, T218A
# B6: Rpn7, co-expressed lid subunit (protein, UniProt Q06103 20-424)
# chain: B1 chain with C185W
# B7: Rpn12, co-expressed lid subunit (protein, UniProt P32496 1-274)
# chain: MPSLAELTKSLSIAFENGDYAACEKLLPPIKIELIKNNLLIPDLSIQNDIYLNDLMITKRILEVGALASIQTFNFDSFENYFNQLKPYYFSNNHKLSESDKKSKLISLYLLNLLSQNNTTKFHSELQYLDKHIKNLEDDSLLSYPIKLDRWLMEGSYQKAWDLLQSGSQNISEFDSFTDILKSAIRDEIAKNTELSYDFLPLSNIKALLFFNNEKETEKFALERNWPIVNSKVYFNNQSKEKADYEDEMMHEEDQKTNIIEKAMDYAISIENIV
# B8: Rpn5, co-expressed lid subunit (protein, UniProt Q12250 1-445)
# chain: MSRDAPIKADKDYSQILKEEFPKIDSLAQNDCNSALDQLLVLEKKTRQASDLASSKEVLAKIVDLLASRNKWDDLNEQLTLLSKKHGQLKLSIQYMIQKVMEYLKSSKSLDLNTRISVIETIRVVTENKIFVEVERARVTKDLVEIKKEEGKIDEAADILCELQVETYGSMEMSEKIQFILEQMELSILKGDYSQATVLSRKILKKTFKNPKYESLKLEYYNLLVKISLHKREYLEVAQYLQEIYQTDAIKSDEAKWKPVLSHIVYFLVLSPYGNLQNDLIHKIQNDNNLKKLESQESLVKLFTTNELMRWPIVQKTYEPVLNEDDLAFGGEANKHHWEDLQKRVIEHNLRVISEYYSRITLLRLNELLDLTESQTETYISDLVNQGIIYAKVNRPAKIVNFEKPKNSSQLLNEWSHNVDELLEHIETIGHLITKEEIMHGLQAK
# B9: Rpn9, co-expressed lid subunit (protein, UniProt Q04062 1-393)
# chain: MFNNHEIDTILSTLRMEADPSLHPLFEQFEKFYEEKLWFQLSESLTKFFDDAKSTPLRLRLYDNFVSKFYDKINQLSVVKYLLASLKDSKDFDESLKYLDDLKAQFQELDSKKQRNNGSKDHGDGILLIDSEIARTYLLKNDLVKARDLLDDLEKTLDKKDSIPLRITNSFYSTNSQYFKFKNDFNSFYYTSLLYLSTLEPSTSITLAERQQLAYDLSISALLGDKIYNFGELLHHPIMETIVNDSNYDWLFQLLNALTVGDFDKFDSLIKVQISKIPILAQHESFLRQKICLMTLIETVFVKNIRMLSFEDISKATHLPKDNVEHLVMRAISLGLLKGSIDQVNELVTISWVQPRIISGDQITKMKDRLVEWNDQVEKLGKKMEARGQSIWV
# Target: Rpt6 I375C (Rpn7-Rpt6 reporter pair) (budding yeast (S. cerevisiae), expressed in yeast cells) (UniProt Q01939)
# Assay: cross-linking
# Conditions: not given
row,binding,Binder
1,binds,B1

# Target: T1, Rpn6 with MBP tag, co-expressed with …
# Assay: co-purification of co-expressed subunits
# Conditions: remark: other sources report otherwise
row,binding,Binder
1,binds,B2
2,binds,B3

# Target: T2, Rpn6 with MBP tag, co-expressed with the other lid subunits (budding yeast (S. cerevisiae))
# Assay: co-purification of co-expressed subunits
# Conditions: not given
row,binding,Binder
1,binds,B4
2,binds,B5
3,binds,B6
4,binds,B7
5,binds,B8
6,binds,B9
